Results are given in words; binding and its absence hold for the method and conditions named. In cells and extracts the contact can be indirect. A result given as binding can be weak or reduced; the word gives no strength. Sequences can lack the tags named with a protein.
Target: T1, murine EpCAM in fusion with yellow fluorescent protein (YFP) at the C-terminus, in mF9 cells (murine) (UniProt Q99JW5)
T1 sequence: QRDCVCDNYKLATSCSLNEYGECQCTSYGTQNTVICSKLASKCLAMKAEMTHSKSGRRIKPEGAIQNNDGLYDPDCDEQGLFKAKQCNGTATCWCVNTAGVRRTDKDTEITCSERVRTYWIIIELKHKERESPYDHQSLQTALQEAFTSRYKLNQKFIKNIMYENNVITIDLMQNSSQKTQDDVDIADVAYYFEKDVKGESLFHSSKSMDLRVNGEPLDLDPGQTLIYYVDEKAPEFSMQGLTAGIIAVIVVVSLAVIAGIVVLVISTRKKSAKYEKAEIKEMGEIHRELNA
Test: co-IP; whole-cell lysates of mF9 cells stably expressing EpCAM-YFP or YFP; 4 mg lysate, GFP-Trap agarose beads; washed with 0.5% tween in TBS; immunoblot of endogenous partners

With Rab5 (mouse (endogenous in mF9)) the binding was “binds”.

Reference: article PMC8517208
